Consider 21 compounds from PubChem BioAssay AID328 (DTP/NCI, 2004).

The subject of this assay is BDF1 mice, P388 leukemia ip, median survival T/C. The assay is described as follows: NCI In Vivo Anticancer Drug Screen. Data for tumor model P388 Leukemia (intraperitoneal) in B6D2F1 (BDF1) mice. The settings on record: T/C endpoint: median survival time, higher T/C = longer survival. In outline:
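Each value expresses how treatment altered survival: treated-mouse outcome over vehicle-mouse outcome, both groups bearing the transplanted tumour.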

Where [1] appears, read: dose: 25.0 mg/kg/injection, schedule: Q01DX009 (ip), vehicle: saline.
[2] abbreviates: dose: 50.0 mg/kg/injection, schedule: Q01DX009 (ip), vehicle: saline.
The mark [3] stands for this setting: dose: 100.0 mg/kg/injection, schedule: Q01DX009 (ip), vehicle: saline.
The mark [4] stands for this setting: dose: 100.0 mg/kg/injection, schedule: Q04DX003 (ip), vehicle: saline.
Where [5] appears, read: dose: 200.0 mg/kg/injection, schedule: Q04DX003 (ip), vehicle: saline.
Setting [6] is: dose: 12.5 mg/kg/injection, schedule: Q01DX009 (ip), vehicle: saline.
[7] abbreviates: dose: 50.0 mg/kg/injection, schedule: Q04DX003 (ip), vehicle: saline.
Where [8] appears, read: dose: 200.0 mg/kg/injection, schedule: Q01DX009 (ip), vehicle: saline.

Molecules are shown by their SMILES. The list shows only some results of the screen, not a fair sample: it gathers tests that were run many times, whatever their T/C, doses with no T/C, and many T/C values between a quarter and a half above the control. Other doses and runs of a compound stand elsewhere. T/C: endpoint of the treated group in % of that of the vehicle group. Some entries give survivors of the animals treated and no T/C: the source holds a T/C of zero for them, seemingly a mark for toxic or unscored doses. Some doses without a T/C left all or most animals alive at the check, yet need not have been tolerated: the source hardly ever lists a survival T/C far under the control, and the zero likely stands for such cases as well. Counts of survivors are from the toxicity check (mostly the fifth day) where no day follows; animals may have died later. Schedule codes are those of the source, taken here to give the interval after Q, in days (D) or hours (H), and the number of doses after X. Some entries hold several experiments; the results are listed from low to high. Where survival is the endpoint, the PubChem record calls one and a half times the control and up active, and a quarter to a half above the control has no call in these data; cut-offs in other NCI protocols can differ. Some T/C values carry the count of animals alive at the toxicity check (mostly the fifth day); where none is given, no animal had died by that day. Non-standard residues stand in square brackets, D forms with d. Residues, ends and D or L forms follow the SMILES beside them. ξ: configuration not given here. *: point of attachment. Nphe = O=C(O)CNCc1ccccc1; ξL = CC(C)CC(N)C(=O)O; Ms = CS(=O)(=O)*

Take `C=C[P+](c1ccccc1)(c1ccccc1)c1ccccc1`: the survivor count by setting is: (dose: 0.75 mg/kg/injection, schedule: Q01DX010 (ip), vehicle: saline) 6 of 6; (dose: 6.0 mg/kg/injection, schedule: Q01DX010 (ip), vehicle: saline) 6 of 6; (dose: 10.0 mg/kg/injection, schedule: Q01DX009 (ip), vehicle: saline) 6 of 6; (dose: 10.0 mg/kg/injection, schedule: Q04DX003 (ip), vehicle: saline) 6 of 6; (dose: 20.0 mg/kg/injection, schedule: Q01DX009 (ip), vehicle: saline) 6 of 6; (dose: 20.0 mg/kg/injection, schedule: Q04DX003 (ip), vehicle: saline) 6 of 6. Besides, the survivor count (dose: 40.0 mg/kg/injection, schedule: Q04DX003 (ip), vehicle: saline) is recorded as 5 of 6. Further, the T/C is, setting by setting: (dose: 1.6 mg/kg/injection, schedule: Q01DX009 (ip), vehicle: saline) 125 % of control; (dose: 2.5 mg/kg/injection, schedule: Q01DX009 (ip), vehicle: saline) 132 % of control; (dose: 5.0 mg/kg/injection, schedule: Q04DX003 (ip), vehicle: saline) 125 and 129 % of control; (dose: 7.5 mg/kg/injection, schedule: Q04DX003 (ip), vehicle: saline) 125 % of control [5 of 6 alive].

As for `O=C(CCCCC(=O)Nc1ccc(C(=O)Nc2cc(C3=NCCN3)cc(C3=NCCN3)c2)cc1)Nc1ccc(C(=O)Nc2cc(C3=NCCN3)cc(C3=NCCN3)c2)cc1`, the T/C is 129 % of control under setting [1]; 125 % of control under setting [2]; 129 % of control (dose: 66.0 mg/kg/injection, schedule: Q04DX003 (ip), vehicle: saline); 126 % of control (dose: 67.0 mg/kg/injection, schedule: Q01DX009 (ip), vehicle: saline); 133, 138, 145 % of control under setting [3]; 125 and 133 % of control under setting [4]. In addition, the T/C (dose: 150.0 mg/kg/injection, schedule: Q01DX009 (ip), vehicle: saline) is 130 % of control. In addition, the survivor count (dose: 400.0 mg/kg/injection, schedule: Q04DX003 (ip), vehicle: saline) was 1 of 6.

Regarding `CO[C@H]1OC(=O)C=C2C1=C[C@H]1OC(=O)[C@@]3(C)CCC[C@@]2(C)[C@@H]13`, the survivor count (dose: 50.0 mg/kg/injection, schedule: Q01DX009 (ip), vehicle: Klucel (hydroxypropylcellulose) (HPC)) was 3 of 3.

Take `CCCN(CCC)CCCOC(=O)c1ccc(N)cc1`: the survivor count under setting [5] was 0 of 6.

With `CN(C)CCCN1c2ccccc2Sc2ccc(C(F)(F)F)cc21`, the T/C (dose: 12.37 mg/kg/injection, schedule: Q01DX009 (ip), vehicle: saline) was 136 % of control; the T/C under setting [6] was 130 and 145 % of control; the T/C (dose: 16.5 mg/kg/injection, schedule: Q04DX003 (ip), vehicle: saline) was 127 % of control; the T/C (dose: 18.75 mg/kg/injection, schedule: Q01DX009 (ip), vehicle: saline) was 127 and 145 % of control; the T/C under setting [1] is 145 % of control; the T/C (dose: 25.0 mg/kg/injection, schedule: Q04DX003 (ip), vehicle: saline) was 129, 130, 144 % of control. Further, the T/C is 136 % of control [5 of 6 alive] (dose: 28.12 mg/kg/injection, schedule: Q01DX009 (ip), vehicle: saline); 143 % of control (dose: 50.0 mg/kg/injection, schedule: Q04DX003 (ip), vehicle: saline with Tween-80); 127 and 140 % of control under setting [7]. In addition, the survivor count runs as follows: under setting [1], 6 of 7; (dose: 37.5 mg/kg/injection, schedule: Q01DX009 (ip), vehicle: saline) 4 of 6; under setting [2], 2 of 7; under setting [7], 3 of 6; under setting [4], 0 of 6 and 2 of 6; under setting [5], 0 of 6.

Regarding `O=NN1CCCNC1=O`, the survivor count (dose: 150.0 mg/kg/injection, schedule: Q04DX003 (ip), vehicle: saline with Tween-80) is on record as 5 of 6.

As for `CC(C)C(C=O)C(O)(C(F)(F)F)C(F)(F)Cl` (stereo not drawn), under setting [2], the survivor count was 6 of 6.

As to `NC(N)=Nc1ccc(S(=O)(=O)O)cc1`, the survivor count runs as follows: under setting [8], 3 of 6; (dose: 400.0 mg/kg/injection, schedule: Q01DX009 (ip), vehicle: saline) 0 of 6.

Regarding `C=C1C(=O)OC2CC(C)CCC/C(CO)=C/C(OC(=O)/C(=C/CO)CO)C12` (stereo not drawn), the T/C (dose: 14.0 mg/kg/injection, schedule: Q01DX009 (ip), vehicle: saline) was 125 % of control.

Turning to `N#CCSc1ncnc2nc[nH]c12`, the survivor count (dose: 240.0 mg/kg/injection, schedule: Q01DX010 (ip), vehicle: saline) is 0 of 6 and 2 of 6.

Regarding `COc1cc2c(cc1OC)-c1ccc3cc4c(cc3c1N(C)C2)OCO4`, the T/C is 131 % of control (dose: 20.0 mg/kg/injection, schedule: Q01DX009 (ip), vehicle: other) and 141 % of control (dose: 80.0 mg/kg/injection, schedule: Q01DX009 (ip), vehicle: other).

Take `CN(C)CCC=C1c2ccccc2-c2ccccc21`: the survivor count is recorded as 6 of 6 under setting [3] and 0 of 6 under setting [8].

Turning to `COc1cc2c(cc1OC)C(c1ccc(N=Cc3ccc(Cl)c(Cl)c3)cc1)N(C(=S)Nc1cc(Cl)ccc1Cl)CC2` (stereo not drawn), the survivor count (dose: 100.0 mg/kg/injection, schedule: Q01DX009 (ip), vehicle: saline with Tween-80) is on record as 6 of 6.

Take `C[N+](C)(CC(=O)Nc1ccc(Cl)c(Cl)c1)Cc1ccc(Cl)c(Cl)c1`: the survivor count (dose: 25.0 mg/kg/injection, schedule: Q01DX009 (ip), vehicle: saline with Tween-80) is recorded as 3 of 6.

Take `CC1=CC(=O)OC2(C1)CC1CCC2CN1C` (stereo not drawn): the survivor count under setting [4] is 2 of 6.

`CO[C@@H]1C=C[C@@]23c4cc5c(cc4CN(C[C@@H]2O)[C@H]3C1)OCO5`: where the note is “dose: 75.0 mg/kg/injection, schedule: Q01DX010 (ip), vehicle: saline”, the survivor count is reported as 0 of 6.

Regarding `CC(C)CC(NC(=O)CN(Cc1ccccc1)S(C)(=O)=O)C(=O)O` (stereo not drawn) (Ms-[Nphe]-[ξL]-OH), the T/C was 133 % of control [5 of 6 alive] (dose: 25.0 mg/kg/injection, schedule: Q01DX009 (ip), vehicle: other) and 136 % of control (dose: 100.0 mg/kg/injection, schedule: Q01DX009 (ip), vehicle: other). Besides, under “dose: 400.0 mg/kg/injection, schedule: Q01DX009 (ip), vehicle: other”, the survivor count is recorded as 6 of 6.

Consider `C=C(C)C(=O)O[C@H]1CC2=CC(CC(C)=C[C@H]3OC(=O)C(=C)C13)OC2=O` (stereo partly drawn), for which the T/C by setting is: (dose: 25.0 mg/kg/injection, schedule: Q01DX001 (ip), vehicle: saline with Tween-80) 131 % of control; (dose: 100.0 mg/kg/injection, schedule: Q01DX001 (ip), vehicle: saline with Tween-80) 125 and 134 % of control.

Take `COc1ccc(C(C#N)N2CCCCC2)cc1` (stereo not drawn): the survivor count was 6 of 6 (dose: 100.0 mg/kg/injection, schedule: Q01DX009 (ip), vehicle: Klucel (hydroxypropylcellulose) (HPC)); 4 of 6 (dose: 200.0 mg/kg/injection, schedule: Q01DX009 (ip), vehicle: Klucel (hydroxypropylcellulose) (HPC)); 6 of 6 (dose: 200.0 mg/kg/injection, schedule: Q04DX003 (ip), vehicle: Klucel (hydroxypropylcellulose) (HPC)); 3 of 6 (dose: 400.0 mg/kg/injection, schedule: Q04DX003 (ip), vehicle: Klucel (hydroxypropylcellulose) (HPC)).

For `CCC1NC(C)(C)CC1=C(C)C` (stereo not drawn), the survivor count (dose: 6.25 mg/kg/injection, schedule: Q01DX009 (ip), vehicle: saline) is 6 of 6; the survivor count under setting [6] is 6 of 6; the survivor count under setting [1] is 6 of 6.

With `COC(=O)C(Cc1ccccc1)NS(=O)(=O)c1ccc(C)cc1` (stereo not drawn), where the note is “dose: 100.0 mg/kg/injection, schedule: Q01DX005 (ip), vehicle: saline with Tween-80”, the survivor count is given as 5 of 5.
